Results are given in words; binding and its absence hold for the method and conditions named. Binding seen in cells or lysates may run through a third protein. Some entries that bind do so weakly or less than the wild type.

By UniProt entry, the sequences of proteins in these tests, tags left out.
UniProt P23458: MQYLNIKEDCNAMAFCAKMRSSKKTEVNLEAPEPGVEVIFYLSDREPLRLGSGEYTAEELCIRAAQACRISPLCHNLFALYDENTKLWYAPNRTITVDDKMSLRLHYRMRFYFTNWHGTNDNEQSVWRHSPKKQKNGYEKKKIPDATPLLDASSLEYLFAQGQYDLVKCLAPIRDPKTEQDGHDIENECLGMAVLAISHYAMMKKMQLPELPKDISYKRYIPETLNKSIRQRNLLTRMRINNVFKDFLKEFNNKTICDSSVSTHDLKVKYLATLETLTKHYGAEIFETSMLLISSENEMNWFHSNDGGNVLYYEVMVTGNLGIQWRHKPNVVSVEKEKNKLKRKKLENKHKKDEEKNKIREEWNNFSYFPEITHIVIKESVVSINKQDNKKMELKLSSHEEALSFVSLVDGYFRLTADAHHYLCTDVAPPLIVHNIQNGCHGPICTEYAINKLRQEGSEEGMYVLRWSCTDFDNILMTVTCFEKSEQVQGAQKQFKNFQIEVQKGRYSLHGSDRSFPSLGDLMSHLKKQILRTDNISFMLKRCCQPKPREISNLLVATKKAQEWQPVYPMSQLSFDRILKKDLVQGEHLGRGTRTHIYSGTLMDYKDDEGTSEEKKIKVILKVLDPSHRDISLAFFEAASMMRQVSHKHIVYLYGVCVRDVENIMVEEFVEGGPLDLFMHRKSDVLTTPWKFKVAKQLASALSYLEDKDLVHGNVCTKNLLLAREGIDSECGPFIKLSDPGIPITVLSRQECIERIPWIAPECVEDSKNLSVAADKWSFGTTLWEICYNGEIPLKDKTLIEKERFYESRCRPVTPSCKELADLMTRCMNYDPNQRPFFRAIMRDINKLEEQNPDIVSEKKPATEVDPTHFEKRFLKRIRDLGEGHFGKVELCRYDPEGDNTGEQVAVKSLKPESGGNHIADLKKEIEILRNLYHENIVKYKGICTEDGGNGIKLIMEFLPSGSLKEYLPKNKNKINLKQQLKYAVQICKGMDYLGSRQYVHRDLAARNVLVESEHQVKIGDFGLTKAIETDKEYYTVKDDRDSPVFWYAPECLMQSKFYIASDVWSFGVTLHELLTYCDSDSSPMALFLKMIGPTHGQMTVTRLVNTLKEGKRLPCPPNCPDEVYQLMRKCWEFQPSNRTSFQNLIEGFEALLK
UniProt P42224: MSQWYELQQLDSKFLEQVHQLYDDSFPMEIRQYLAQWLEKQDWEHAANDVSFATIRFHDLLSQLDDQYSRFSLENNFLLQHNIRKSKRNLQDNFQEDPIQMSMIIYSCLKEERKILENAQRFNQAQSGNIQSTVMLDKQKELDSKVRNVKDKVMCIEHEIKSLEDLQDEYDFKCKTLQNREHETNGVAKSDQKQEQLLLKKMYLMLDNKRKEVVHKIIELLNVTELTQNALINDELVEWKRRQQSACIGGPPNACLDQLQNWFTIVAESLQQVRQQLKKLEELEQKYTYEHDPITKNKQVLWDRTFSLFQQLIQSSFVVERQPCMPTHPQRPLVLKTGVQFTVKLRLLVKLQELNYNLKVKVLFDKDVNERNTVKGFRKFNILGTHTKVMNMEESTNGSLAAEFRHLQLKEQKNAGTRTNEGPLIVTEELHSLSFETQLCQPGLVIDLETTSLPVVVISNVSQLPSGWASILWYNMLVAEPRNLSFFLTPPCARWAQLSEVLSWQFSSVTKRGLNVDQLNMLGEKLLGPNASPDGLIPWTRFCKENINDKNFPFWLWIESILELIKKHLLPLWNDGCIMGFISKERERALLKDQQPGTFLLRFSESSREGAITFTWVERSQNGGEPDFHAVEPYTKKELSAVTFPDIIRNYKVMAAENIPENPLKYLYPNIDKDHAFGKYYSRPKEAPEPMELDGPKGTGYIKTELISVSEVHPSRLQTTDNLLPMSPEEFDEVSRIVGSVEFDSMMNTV

These results are taken from PMC10378164.

The target of the assay is JAK1 (human (endogenous in Caski and SW756)) (UniProt P23458). The assay can be described thus: co-IP; immunoprecipitation with anti-JAK1 antibody (Pierce co-immunoprecipitation kit) from Caski/Ctrl, Caski/B3, SW756/Ctrl and SW756/B3 cells; immunoblot for STAT1 and STAT3; more interaction in SERPINB3-expressing cells. A general note: Immunoblotting shows a protein as a band on a membrane.

With STAT1 (from UniProt P42224 1-750), the binding result is “binds”.
